## Percent effect of library compounds

The values are deposited in ChEMBL (CHEMBL3988442, “University of Dundee, Small-Polar-MMV Screening Library” (2021)).

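Growth of Mycobacterium tuberculosis over 3 days (7H9 medium with glucose and tyloxapol); the read-out is not stated. Compounds at 50 µM. The record gives no direction; compounds that gave an IC50 in retests scored well above the rest, so higher reads as more growth inhibition. Of about 69,000 compounds tested this way, about 760 (1.1%) reached 50% or more in at least one test.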

Values are the deposited “Percent Effect”, in %. How 0% and 100% were set is not recorded. Most values in the screen are low, and negative values occur. This is an unselected part of the compounds tested. Two or more numbers in one place are separate tests of the same structure; such repeats can differ widely.

| structure | effect |
|---|---|
| `CCn1c(Cn2cncn2)nnc1C1CCN(C(=O)CCSC)CC1` | 23.58% |
| `CC(C)(C)n1ccc(C(=O)N2CCCC(c3ncc[nH]3)C2)c1` (stereo not shown) | 1.11% |
| `CC(O)CN1CCN(Cc2nnc(C3CC3)o2)CC1` (stereo not shown) | -10.22% |
| `CCC(C)N(Cc1ccc(C)cc1)Cc1c[nH]c(C)n1` (stereo not shown) | 32.43% |
| `Cc1cncc(C2CCN(Cc3ccc(S(C)(=O)=O)cc3)CC2)n1` | -17.59% |
| `CSc1cc2c(cc1NC(=O)NCc1ccco1)OCCO2` | -4.293% |
| `c1csc(CN(Cc2ccsc2)CC2CCCO2)n1` (stereo not shown) | 17.58% |
| `CCOc1ccc(CCCC(=O)N2CCC(c3nnn[nH]3)CC2)cc1C` | 4.052% |
| `Cc1ccc(NC(C)C(=O)NCc2cccs2)cc1Cl` (stereo not shown) | 8.548% |
| `[H][C@@]12COC[C@H](C(=O)N3CCCCO3)[C@]1([H])CN(C1CCOCC1)C2` | -5.15% & -7.283% |
| `CN(Cc1ccc(F)cc1)CC1(O)CCN(C(=O)c2ccccn2)C1` (stereo not shown) | -0.4697% |
| `CCNc1ncc(C(=O)N2Cc3nc(C)[nH]c(=O)c3C2)cn1` | -6.838% |
| `O=C(NCC1CC1)C1CCC2(CN(C(=O)c3ccno3)C2)O1` (stereo not shown) | 16% & 0.4213% |
| `COC(=O)NCC(=O)N1CCCn2nc(CN3CC[C@H](F)C3)cc2C1` | 3.405% & -7.772% |
| `Cc1cn2nc(Sc3nnnn3C)sc2n1` | -35.53% |
| `CC(C)Cn1cc(NC(=O)c2cccc(N(C)C)c2)cn1` | 6.279% & 4.549% |
| `CC(C)c1ccc(NC2CCCN(Cc3ccncc3)C2)cc1` (stereo not shown) | 36.56% & 20.01% |
| `Cc1cccc(C(=O)N2CCCN(CCCSCC#N)CC2)c1` | 0.5114% |
| `CC(NCc1ccccn1)c1ccc(N2CCN(C)CC2)c(F)c1` (stereo not shown) | -0.1313% & 1.715% |
| `O=C(NCCCN1CCCC1=O)c1ccc(-n2ccc3ccccc32)s1` | 33.08% |
| `O=C(O)C(F)(F)F.O=C(O)C(F)(F)F.[H][C@]12C[C@@H](Cn3cncn3)N(C(C)=O)[C@@]1([H])CCN(Cc1ccccn1)C2` | -3.054% & -11.82% |
| `CCc1nc(C)c(-c2nccn2CC2CCCCO2)[nH]1` (stereo not shown) | 9.277% |
| `COc1ccc(CNc2nc(C3CC3)no2)cc1OC` | 2.247% |
| `CNCCc1nc2cc(Cl)ccc2[nH]1.Cl.Cl` | -17.67% |
| `O=C(O)C(F)(F)F.O=C(O)C(F)(F)F.O=C(O)C(F)(F)F.[H][C@@]12C[C@@H](Oc3cncnc3)CN1CCN(Cc1ccncc1)C2` | 3.885% |
| `CN(CC(N)=O)CC1(c2ccc(Br)cc2)CC1` | 11.04% |
| `CC(=O)N1CCC(N2CCOC[C@H]2c2nc(C(C)(C)C)c[nH]2)CC1` | 4.801% & 0.7774% |
| `FC1(F)CCN(Cc2ccncc2)CC12CCN(c1cccnc1)C2.O=C(O)C(F)(F)F.O=C(O)C(F)(F)F.O=C(O)C(F)(F)F` (stereo not shown) | 0.7862% |
| `COCCOc1cccc(CNCc2c(C)nn(C)c2N(C)C)c1` | -5.511% |
| `CCN(Cc1nc2c(cnn2C)c(=O)[nH]1)c1cccc(C)c1C` | -7.346% & -1.678% |
| `O=C(O)C(F)(F)F.O=C(O)C(F)(F)F.[H][C@@]12C[C@@H](Oc3cncnc3)CN1CCN(c1ncc(F)cn1)C2` | -25.22% |
| `Cl.Nc1cccnc1N1CCCCCC1` | 22.83% & 23.98% |
| `CS(=O)(=O)NC1CCN(C(=O)CCC2CCCO2)CC1` (stereo not shown) | 8.097% |
| `Cc1cnn(CC2CCCN2C(=O)c2ccc(F)cc2Cl)c1` (stereo not shown) | 7.906% |
| `CCOCCCNC(=O)c1cn(C(C)(C)C)c2ncccc12` | -9.669% |
| `Cn1cc(CN2CCC3(CCC(C(=O)NCC4CC4)C3)CC2)cn1.O=C(O)C(F)(F)F` (stereo not shown) | 5.645% |
| `CCC(CO)N(Cc1ccccn1)C(=O)c1ncccc1C` (stereo not shown) | -50.31% |
| `COc1cccc(C(=O)N2CCN(Cc3nc(C(C)C)no3)CC2)c1` | 9.446% & 19.91% |
| `Cc1cc(C)c2[nH]c(=O)c(CN3CCCC4(C3)CN(C)C(=O)O4)cc2c1` (stereo not shown) | -3.848% |
| `CC1CCN(c2ccc(NC(=O)CCn3cccn3)cc2)CC1` | 2.586% |
| `COCCC(=O)N1CCCCC1c1ccc(F)cc1` (stereo not shown) | 4.435% & 10.88% |
| `Cc1ccc(-c2csc3c(=O)[nH]c(N4CCCC(C(N)=O)C4)nc23)cc1` (stereo not shown) | -6.943% & 2.808% |
| `Cc1cc(C(=O)N2CCN(C)CC2)nn1CC(=O)NCc1ccccn1.Cl` | -13.83% & 0.0722% |
| `Cn1nnc2cc(C(=O)NS(=O)(=O)c3ccc(F)cc3)ccc21` | -12.67% |
| `CN1CCCC2(CCN(C(=O)CCn3cncn3)C2)C1=O` (stereo not shown) | -21.47% |
| `CNc1nc(N2CCN(CC=C(C)C)C(CCO)C2)nc2c1CCC2` (stereo not shown) | 5.036% & 1.294% |
| `Cc1cccc(-c2noc(CN3CCCC3Cn3cncn3)n2)c1` (stereo not shown) | 4.133% |
| `Cc1cc(C)n(CC2CCCN2C(=O)c2cnccn2)n1` (stereo not shown) | -4.438% |
| `Cn1cc(CN(Cc2ccccc2)CC(O)c2cccs2)cn1` (stereo not shown) | -2.498% |
| `O=C(CNc1cccc(S(=O)(=O)C(F)F)c1)NCc1ccco1` | -20.76% |
| `O=C1NCCN1CCNc1cc(-c2ccccc2)nc2ccnn12` | -15.2% |
| `c1ccc(N2CCN(Cc3cnc(C4CCCCO4)nc3)CC2)nc1` (stereo not shown) | 6.563% |
| `CCN(C(=O)CCn1cccn1)C1CC1` | 4.14% |
| `O=C(O)C(F)(F)F.O=C(O)C(F)(F)F.OCCN1CC2(CCN(c3ccccc3)C2)C1` | 47.74% & 17.86% |
| `CNc1nccc(C2CCCCN2Cc2cnn3cccnc23)n1` (stereo not shown) | 15.27% |
| `Cc1ccc(C(=O)CC(SC2CCCCC2)C(=O)O)cc1` (stereo not shown) | 6.819% & 14.93% |
| `CC(C)N(C)Cc1cc(=O)n2c(n1)CN(C(=O)c1ccc[nH]1)CCC2` | 10.09% |
| `CCC(=O)N1CCCC(c2nc(-c3cccnn3)no2)C1` (stereo not shown) | 9.169% |
| `O=C(O)C(F)(F)F.O=C1CC2(CCN(Cc3ccco3)C2)CN1c1ccc2c(c1)OCO2` (stereo not shown) | 3.788% |
| `[H][C@]12CC[C@]([H])(CC(=O)N(C)C1)N2C(=O)c1ccc(C)[nH]c1=O` | -24.02% |
| `O=C(NCCc1noc(C2CCCC2)n1)c1cn2ccsc2n1` | 19.03% |
| `O=C1CCC2(CCN(Cc3cscn3)CC2)CN1[C@H]1CC[C@H](O)CC1` | -26.11% |
| `O=C(Nc1ncnc2c1CCC2)c1cccc(F)c1` | -32.52% & -2.242% |
| `CCN(CC)CCNc1nc(C(C)C)nc2c(C)nn(CC)c12` | 25.29% |
| `CCOC(=O)N1CC(=O)N(CCc2ccccc2)CC(O)C1` (stereo not shown) | 6.385% |
| `Cc1cc(CNc2nccc(N)n2)c2[nH]c(C)c(C)c2c1` | 27.64% |
| `CCn1c(Nc2ccccc2OC)nc2c(C)nn(C)c2c1=O` | 6.469% |
| `CC1(C)CN=C(N2CCN(CC3CCOC3)CC2)S1` (stereo not shown) | -17.82% |
| `COc1ccc2c(ccn2CCC(=O)NCCC(=O)O)c1` | -3.996% |
| `CCCN(CCC)c1nc(N)nc(-c2cc(Cl)ccc2OC)n1` | 22.24% & 33.57% |
| `CC(C)NC(=O)N1CCC2(CC1)C(=O)NCCN2Cc1ccccc1.O=C(O)C(F)(F)F` | -10.13% |

For reference, 6 entries once more:

- CCN(CC)CCNc1nc(C(C)C)nc2c(C)nn(CC)c12 | 25.29%
- Cl.Nc1cccnc1N1CCCCCC1 | 22.83% & 23.98%
- CCN(Cc1nc2c(cnn2C)c(=O)[nH]1)c1cccc(C)c1C | -7.346% & -1.678%
- O=C(O)C(F)(F)F.O=C(O)C(F)(F)F.O=C(O)C(F)(F)F.[H][C@@]12C[C@@H](Oc3cncnc3)CN1CCN(Cc1ccncc1)C2 | 3.885%
- Cc1cccc(-c2noc(CN3CCCC3Cn3cncn3)n2)c1 (stereo not shown) | 4.133%
- CCCN(CCC)c1nc(N)nc(-c2cc(Cl)ccc2OC)n1 | 22.24% & 33.57%